# Measured values published in the supplement of paper PMC8728848.
# The other results are listed elsewhere or left out.
# Legend:
# Experiment in all cases: glycan array binding signal (z-score within array); higher = stronger binding
# Settings in all cases: glycan notation: IUPAC condensed, linker removed
# [1] = target: Fuc(a1-2)Gal
# Outline: (§1)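 The binding signal is a Z-score computed within each array. Data were drawn from 3228 arrays in the Consortium for Functional Glycomics database, restricted to those with a known protein sequence. Scores were averaged over arrays of the same protein sequence at different concentrations or buffers, and over linkers, and negative values can be taken as non-binding.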
# [2] = target: Fuc(a1-2)Gal(b1-3)GalNAc
# Outline: as §1
# [3] = target: Fuc(a1-2)Gal(b1-3)GalNAc(a1-3)[Fuc(a1-2)]Gal(b1-4)Glc
# Outline: as §1
# [4] = target: Fuc(a1-2)Gal(b1-3)GalNAc(a1-3)[Fuc(a1-2)]Gal(b1-4)GlcNAc
# Outline: as §1
# [5] = target: Fuc(a1-2)Gal(b1-3)GalNAc(b1-3)Gal
# Outline: as §1
# [6] = target: Fuc(a1-2)Gal(b1-3)GalNAc(b1-3)Gal(a1-4)Gal(b1-4)Glc
# Outline: as §1
# [7] = target: Fuc(a1-2)Gal(b1-3)GalNAc(b1-4)[Neu5Ac(a2-3)]Gal(b1-4)Glc
# Outline: as §1
# [8] = target: Fuc(a1-2)Gal(b1-3)GlcNAc
# Outline: as §1
# [9] = target: Fuc(a1-2)Gal(b1-3)GlcNAc(b1-2)Man(a1-3)[Fuc(a1-2)Gal(b1-3)GlcNAc(b1-2)Man(a1-6)]Man(b1-4)GlcNAc(b1-4)GlcNAc
# Outline: as §1
# [10] = target: Fuc(a1-2)Gal(b1-3)GlcNAc(b1-2)Man(a1-3)[Fuc(a1-2)Gal(b1-3)GlcNAc(b1-2)Man(a1-6)]Man(b1-4)GlcNAc(b1-4)[Fuc(a1-6)]GlcNAc
# Outline: as §1
# [11] = target: Fuc(a1-2)Gal(b1-3)GlcNAc(b1-3)Gal(b1-4)Glc
# Outline: as §1
# [12] = target: Fuc(a1-2)Gal(b1-3)GlcNAc(b1-3)GalNAc
# Outline: as §1
# [13] = target: Fuc(a1-2)Gal(b1-3)GlcNAc(b1-3)[Fuc(a1-2)Gal(b1-3)GlcNAc(b1-6)]GalNAc
# Outline: as §1
# [14] = target: Fuc(a1-2)Gal(b1-3)GlcNAc(b1-3)[Gal(b1-4)GlcNAc(b1-6)]Gal(b1-4)Glc
# Outline: as §1
# [15] = target: Fuc(a1-2)Gal(b1-3)GlcNAc(b1-3)[Neu5Ac(a2-6)Gal(b1-4)GlcNAc(b1-6)]Gal(b1-4)Glc
# Outline: as §1
# [16] = target: Fuc(a1-2)Gal(b1-3)GlcNAc6S
# Outline: as §1
# [17] = target: Fuc(a1-2)Gal(b1-3)[Fuc(a1-4)]GlcNAc
# Outline: as §1
# [18] = target: Fuc(a1-2)Gal(b1-3)[Fuc(a1-4)]GlcNAc(b1-2)Man(a1-3)[Fuc(a1-2)Gal(b1-3)[Fuc(a1-4)]GlcNAc(b1-2)Man(a1-3)]Man(b1-4)GlcNAc(b1-4)GlcNAc
# Outline: as §1
# [19] = target: Fuc(a1-2)Gal(b1-3)[Fuc(a1-4)]GlcNAc(b1-2)Man(a1-3)[Fuc(a1-2)Gal(b1-3)[Fuc(a1-4)]GlcNAc(b1-2)Man(a1-6)]Man(b1-4)GlcNAc(b1-4)[Fuc(a1-6)]GlcNAc(b1-4)[Fuc(a1-6)]GlcNAc
# Outline: as §1
# [20] = target: Fuc(a1-2)Gal(b1-3)[Fuc(a1-4)]GlcNAc(b1-3)[Fuc(a1-3)[Gal(b1-4)]GlcNAc(b1-6)]Gal(b1-4)Glc
# Outline: as §1
# [21] = target: Fuc(a1-2)Gal(b1-3)[Fuc(a1-4)]GlcNAc(b1-3)[Gal(b1-4)GlcNAc(b1-6)]Gal(b1-4)Glc
# Outline: as §1
# [22] = target: Fuc(a1-2)Gal(b1-4)Glc
# Outline: as §1
# [23] = target: Fuc(a1-2)Gal(b1-4)Glc6S
# Outline: as §1
# [24] = target: Fuc(a1-2)Gal(b1-4)GlcNAc
# Outline: as §1
# [25] = target: Fuc(a1-2)Gal(b1-4)GlcNAc(b1-2)Man
# Outline: as §1
# [26] = target: Fuc(a1-2)Gal(b1-4)GlcNAc(b1-2)Man(a1-3)[Fuc(a1-2)Gal(b1-4)GlcNAc(b1-2)Man(a1-6)]Man(b1-4)GlcNAc(b1-4)GlcNAc
# Outline: as §1
# [27] = target: Fuc(a1-2)Gal(b1-4)GlcNAc(b1-2)Man(a1-3)[Fuc(a1-2)Gal(b1-4)GlcNAc(b1-2)Man(a1-6)]Man(b1-4)GlcNAc(b1-4)[Fuc(a1-6)]GlcNAc
# Outline: as §1
# [28] = target: Fuc(a1-2)Gal(b1-4)GlcNAc(b1-2)[Fuc(a1-2)Gal(b1-4)GlcNAc(b1-4)]Man(a1-3)[Fuc(a1-2)Gal(b1-4)GlcNAc(b1-2)Man(a1-6)]Man(b1-4)GlcNAc(b1-4)GlcNAc
# Outline: as §1
# [29] = target: Fuc(a1-2)Gal(b1-4)GlcNAc(b1-3)Gal(b1-4)GlcNAc
# Outline: as §1
# [30] = target: Fuc(a1-2)Gal(b1-4)GlcNAc(b1-3)Gal(b1-4)GlcNAc(b1-2)Man(a1-3)[Fuc(a1-2)Gal(b1-4)GlcNAc(b1-3)Gal(b1-4)GlcNAc(b1-2)Man(a1-6)]Man(b1-4)GlcNAc(b1-4)GlcNAc
# Outline: as §1
# [31] = target: Fuc(a1-2)Gal(b1-4)GlcNAc(b1-3)Gal(b1-4)GlcNAc(b1-3)Gal(b1-4)GlcNAc
# Outline: as §1
# [32] = target: Fuc(a1-2)Gal(b1-4)GlcNAc(b1-3)GalNAc
# Outline: as §1
# [33] = target: Fuc(a1-2)Gal(b1-4)GlcNAc(b1-3)[Fuc(a1-2)Gal(b1-4)GlcNAc(b1-6)]GalNAc
# Outline: as §1
# [34] = target: Fuc(a1-2)Gal(b1-4)GlcNAc(b1-3)[Fuc(a1-3)[Gal(b1-4)]GlcNAc(b1-6)]Gal(b1-4)Glc
# Outline: as §1
# [35] = target: Fuc(a1-2)Gal(b1-4)GlcNAc(b1-6)GalNAc
# Outline: as §1
# [36] = target: Fuc(a1-2)Gal(b1-4)GlcNAc6S
# Outline: as §1
# [37] = target: Fuc(a1-2)Gal(b1-4)[Fuc(a1-3)]GlcNAc
# Outline: as §1
# [38] = target: Fuc(a1-2)Gal(b1-4)[Fuc(a1-3)]GlcNAc(b1-2)Man(a1-3)[Fuc(a1-2)Gal(b1-4)[Fuc(a1-3)]GlcNAc(b1-2)Man(a1-6)]Man(b1-4)GlcNAc(b1-4)[Fuc(a1-6)]GlcNAc
# Outline: as §1
# [39] = target: Fuc(a1-2)Gal(b1-4)[Fuc(a1-3)]GlcNAc(b1-2)[Fuc(a1-2)Gal(b1-4)[Fuc(a1-3)]GlcNAc(b1-4)]Man(a1-3)[Fuc(a1-2)Gal(b1-4)[Fuc(a1-3)]GlcNAc(b1-2)Man(a1-6)]Man(b1-4)GlcNAc(b1-4)GlcNAc
# Outline: as §1
# [40] = target: Fuc(a1-2)Gal(b1-4)[Fuc(a1-3)]GlcNAc(b1-3)Gal(b1-4)[Fuc(a1-3)]GlcNAc
# Outline: as §1
# [41] = target: Fuc(a1-2)Gal(b1-4)[Fuc(a1-3)]GlcNAc(b1-3)Gal(b1-4)[Fuc(a1-3)]GlcNAc(b1-3)Gal(b1-4)[Fuc(a1-3)]GlcNAc
# Outline: as §1
# [42] = target: Fuc(a1-2)Gal(b1-4)[Fuc(a1-3)]GlcNAc(b1-3)GalNAc
# Outline: as §1
# [43] = target: Fuc(a1-2)Gal(b1-4)[Fuc(a1-3)]GlcNAc(b1-3)[Neu5Ac(a2-6)Gal(b1-4)GlcNAc(b1-6)]Gal(b1-4)Glc
# Outline: as §1
# [44] = target: Fuc(a1-2)Gal3S(b1-4)GlcNAc
# Outline: as §1
# [45] = target: Fuc(a1-2)Gal6S(b1-3)GlcNAc
# Outline: as §1
binder,measurement,setting,value
Mermaid1 (Stilbonema majum) (protein) MGSSHHHHHHSSGLVPRGSHMAASGWLRSPQGTVVKLYRRSLSWSKADEFCKDVDGRLVVDRTADMHLFLIKNVLKEKKSRVWVGLRRTAPHSRTWIWSDGTRQNEDDLDANLWLRDEPNDAAGEEECALFMYSPWEKAWGLNDYLCRGGCRSYQFICEKWIR,glycan array binding signal (z-score),[1],0.333
same,glycan array binding signal (z-score),[2],-0.564
same,glycan array binding signal (z-score),[3],-0.132
same,glycan array binding signal (z-score),[4],-1.01
same,glycan array binding signal (z-score),[5],-0.184
same,glycan array binding signal (z-score),[6],-0.588
same,glycan array binding signal (z-score),[7],-0.077
same,glycan array binding signal (z-score),[8],-0.485
same,glycan array binding signal (z-score),[9],1.45
same,glycan array binding signal (z-score),[10],0.195
same,glycan array binding signal (z-score),[11],-0.434
same,glycan array binding signal (z-score),[12],-0.234
same,glycan array binding signal (z-score),[13],0.957
same,glycan array binding signal (z-score),[14],-0.999
same,glycan array binding signal (z-score),[15],-0.551
same,glycan array binding signal (z-score),[16],-0.184
same,glycan array binding signal (z-score),[17],-0.578
same,glycan array binding signal (z-score),[18],0.204
same,glycan array binding signal (z-score),[19],-0.433
same,glycan array binding signal (z-score),[20],-0.948
same,glycan array binding signal (z-score),[21],-0.711
same,glycan array binding signal (z-score),[22],-0.648
same,glycan array binding signal (z-score),[23],2.97
same,glycan array binding signal (z-score),[24],-0.703
same,glycan array binding signal (z-score),[25],-0.596
same,glycan array binding signal (z-score),[26],-0.371
same,glycan array binding signal (z-score),[27],3.06
same,glycan array binding signal (z-score),[28],-0.173
same,glycan array binding signal (z-score),[29],0.508
same,glycan array binding signal (z-score),[30],1.14
same,glycan array binding signal (z-score),[31],-0.63
same,glycan array binding signal (z-score),[32],-0.716
same,glycan array binding signal (z-score),[33],-0.21
same,glycan array binding signal (z-score),[34],0.017
same,glycan array binding signal (z-score),[35],-0.219
same,glycan array binding signal (z-score),[36],-0.921
same,glycan array binding signal (z-score),[37],0
same,glycan array binding signal (z-score),[38],-0.053
same,glycan array binding signal (z-score),[39],-0.72
same,glycan array binding signal (z-score),[40],-0.562
same,glycan array binding signal (z-score),[41],-0.519
same,glycan array binding signal (z-score),[42],-0.868
same,glycan array binding signal (z-score),[43],0.613
same,glycan array binding signal (z-score),[44],0.061
same,glycan array binding signal (z-score),[45],-0.404

# For reference, some entries already given.
binder,measurement,setting,value
Mermaid1 (Stilbonema majum) (protein) MGSSHHHHHHSSGLVPRGSHMAASGWLRSPQGTVVKLYRRSLSWSKADEFCKDVDGRLVVDRTADMHLFLIKNVLKEKKSRVWVGLRRTAPHSRTWIWSDGTRQNEDDLDANLWLRDEPNDAAGEEECALFMYSPWEKAWGLNDYLCRGGCRSYQFICEKWIR,glycan array binding signal (z-score),[33],-0.21
same,glycan array binding signal (z-score),[34],0.017
same,glycan array binding signal (z-score),[35],-0.219
same,glycan array binding signal (z-score),[36],-0.921
same,glycan array binding signal (z-score),[37],0
same,glycan array binding signal (z-score),[38],-0.053
same,glycan array binding signal (z-score),[39],-0.72
same,glycan array binding signal (z-score),[40],-0.562
same,glycan array binding signal (z-score),[41],-0.519
same,glycan array binding signal (z-score),[42],-0.868
